In test [1] the target is chromosomal regional maintenance protein 1 (human (endogenous in 293T and HeLa)) (UniProt O14980). Nature of the test: co-IP; CRM1, ABCE1, TDP-43, AUF1 or IMP1-VenusC (anti-GFP) immunoprecipitated from HeLa cell lysates; equal amounts of lysates treated with or without RnaseA for 30 min on ice before IP.
The target in test [2] is Staufen1-TAP (UniProt O95793). Nature of the test: pull-down; tandem affinity purification of Staufen1-TAP (IgG Sepharose, TEV cleavage, Calmodulin-affinity resin, EGTA elution) from lysates of stable 293T or Jurkat T cells, without or with HIV-1 (pNL4-3); eluates western blotted. On the technique in general: In western blotting, separated proteins are transferred to a membrane and probed.

Sequences of proteins named here, by UniProt entry; tags and fusion partners are left off. A change or cut given only in a name is not applied to a line headed by its entry. Residues count along the entry.
UniProt O14980: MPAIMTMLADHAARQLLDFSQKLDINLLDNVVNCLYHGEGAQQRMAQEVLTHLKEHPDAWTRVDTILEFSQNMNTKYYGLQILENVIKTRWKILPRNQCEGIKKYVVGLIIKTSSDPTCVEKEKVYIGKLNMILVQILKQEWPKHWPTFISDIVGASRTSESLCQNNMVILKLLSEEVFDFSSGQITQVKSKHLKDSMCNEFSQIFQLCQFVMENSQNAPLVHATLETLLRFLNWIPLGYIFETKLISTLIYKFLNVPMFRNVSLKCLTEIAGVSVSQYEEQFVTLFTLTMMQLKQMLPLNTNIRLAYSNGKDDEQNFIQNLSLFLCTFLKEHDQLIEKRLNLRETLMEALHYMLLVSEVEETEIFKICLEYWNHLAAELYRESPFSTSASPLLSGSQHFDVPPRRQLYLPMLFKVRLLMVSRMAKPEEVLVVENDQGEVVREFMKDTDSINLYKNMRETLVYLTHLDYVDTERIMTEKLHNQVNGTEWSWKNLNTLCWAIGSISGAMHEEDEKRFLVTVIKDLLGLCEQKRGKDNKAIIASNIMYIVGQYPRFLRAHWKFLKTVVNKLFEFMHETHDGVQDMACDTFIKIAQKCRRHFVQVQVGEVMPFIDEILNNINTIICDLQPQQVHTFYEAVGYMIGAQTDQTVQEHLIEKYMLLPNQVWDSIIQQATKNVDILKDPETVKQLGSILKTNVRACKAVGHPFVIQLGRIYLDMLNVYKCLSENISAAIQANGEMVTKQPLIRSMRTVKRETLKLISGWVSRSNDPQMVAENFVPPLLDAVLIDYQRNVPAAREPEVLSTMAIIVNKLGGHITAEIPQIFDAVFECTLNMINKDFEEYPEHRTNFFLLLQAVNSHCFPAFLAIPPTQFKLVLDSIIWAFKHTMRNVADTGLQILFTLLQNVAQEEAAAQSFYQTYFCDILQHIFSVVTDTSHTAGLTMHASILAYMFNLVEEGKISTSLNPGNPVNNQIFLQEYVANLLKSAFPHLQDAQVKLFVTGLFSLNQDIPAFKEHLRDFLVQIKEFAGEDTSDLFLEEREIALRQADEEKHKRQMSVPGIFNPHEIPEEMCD
UniProt O95793: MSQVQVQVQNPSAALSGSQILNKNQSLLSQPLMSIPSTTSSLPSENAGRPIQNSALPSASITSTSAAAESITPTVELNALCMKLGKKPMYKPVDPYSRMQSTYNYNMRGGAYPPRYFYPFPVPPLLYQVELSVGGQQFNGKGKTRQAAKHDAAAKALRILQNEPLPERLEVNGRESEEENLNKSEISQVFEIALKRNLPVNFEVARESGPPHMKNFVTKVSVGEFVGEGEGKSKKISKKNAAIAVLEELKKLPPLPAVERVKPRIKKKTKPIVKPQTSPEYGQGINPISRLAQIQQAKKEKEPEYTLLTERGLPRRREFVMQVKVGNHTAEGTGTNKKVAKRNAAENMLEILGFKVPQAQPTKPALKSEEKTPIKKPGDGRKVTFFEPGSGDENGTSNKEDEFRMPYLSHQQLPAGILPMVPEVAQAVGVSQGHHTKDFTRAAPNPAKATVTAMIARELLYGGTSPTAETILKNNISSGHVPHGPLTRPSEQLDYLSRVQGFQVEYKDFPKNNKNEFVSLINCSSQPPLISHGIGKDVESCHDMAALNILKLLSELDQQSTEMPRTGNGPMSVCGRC
Staufen1-TAP: residues 82-577 of O95793
UniProt P11940: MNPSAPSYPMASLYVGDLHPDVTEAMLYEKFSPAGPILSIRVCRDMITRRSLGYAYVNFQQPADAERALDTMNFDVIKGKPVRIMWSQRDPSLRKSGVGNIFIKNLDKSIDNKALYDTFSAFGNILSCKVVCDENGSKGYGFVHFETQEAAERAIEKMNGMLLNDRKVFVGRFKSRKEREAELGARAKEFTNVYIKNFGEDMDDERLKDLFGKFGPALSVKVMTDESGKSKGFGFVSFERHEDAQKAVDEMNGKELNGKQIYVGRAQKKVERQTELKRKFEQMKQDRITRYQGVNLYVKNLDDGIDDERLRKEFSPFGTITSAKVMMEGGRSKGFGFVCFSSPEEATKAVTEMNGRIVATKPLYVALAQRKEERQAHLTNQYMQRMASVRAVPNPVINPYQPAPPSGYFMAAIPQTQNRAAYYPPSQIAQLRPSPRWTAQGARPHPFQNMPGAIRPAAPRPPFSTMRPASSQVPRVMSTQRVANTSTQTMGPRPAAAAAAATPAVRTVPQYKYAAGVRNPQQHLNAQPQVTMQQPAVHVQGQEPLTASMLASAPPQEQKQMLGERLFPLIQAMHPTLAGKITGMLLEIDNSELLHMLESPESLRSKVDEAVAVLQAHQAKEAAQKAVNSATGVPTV

Experimental findings from publication PMC3486646 are described below.

No constants are given. Whether binding was seen depends on the method and setting. Binding seen in cells or lysates may run through a third protein. Some results given as binding are weak or reduced against the parent protein; the word gives no strength.

For “Staufen1 (in the HeLa lysates used for immunoprecipitation) (from UniProt O95793 1-577)”, the binding entry in test [1] was “binds”.

On to “endogenous Staufen1^63 (63 kDa) (from UniProt O95793 1-577)”, for which the binding entry in test [2] is listed as “binds”.

“endogenous Staufen1^(55 kDa) (from UniProt O95793-2 1-496)”: the binding result in test [2] is reported as “binds”.

On to “poly-A binding protein (from UniProt P11940 1-636)”, for which, in test [2], the binding result was “binds”.
